According to publication PMC10651131:
Read-outs that look alike come from different tables or passages of the source. These are yes or no findings as the source states them, for the method shown. In cells and extracts the contact can be indirect. Some results given as binding are weak or reduced against the parent protein; the word gives no strength. For some assays here: Sequences can lack the tags named with a protein.

How the values were obtained:
Test in all cases: split reporter; trimolecular fluorescence complementation (TriFC): GFP (S1 to S9) fragment coexpressed with proteins fused to the S10 or S11 GFP fragments in HEK293T cells, epifluorescence 8 hours after transfection; in some panels an untagged third protein coexpressed
[1] = target: B cell lymphoma 6 (Bcl6), fused to the S10 or S11 GFP fragment (UniProt P41183)
[2] = target: T1, serum response factor (SRF), fused to the S10 or S11 GFP fragment (UniProt Q9JM73)
T1 sequence: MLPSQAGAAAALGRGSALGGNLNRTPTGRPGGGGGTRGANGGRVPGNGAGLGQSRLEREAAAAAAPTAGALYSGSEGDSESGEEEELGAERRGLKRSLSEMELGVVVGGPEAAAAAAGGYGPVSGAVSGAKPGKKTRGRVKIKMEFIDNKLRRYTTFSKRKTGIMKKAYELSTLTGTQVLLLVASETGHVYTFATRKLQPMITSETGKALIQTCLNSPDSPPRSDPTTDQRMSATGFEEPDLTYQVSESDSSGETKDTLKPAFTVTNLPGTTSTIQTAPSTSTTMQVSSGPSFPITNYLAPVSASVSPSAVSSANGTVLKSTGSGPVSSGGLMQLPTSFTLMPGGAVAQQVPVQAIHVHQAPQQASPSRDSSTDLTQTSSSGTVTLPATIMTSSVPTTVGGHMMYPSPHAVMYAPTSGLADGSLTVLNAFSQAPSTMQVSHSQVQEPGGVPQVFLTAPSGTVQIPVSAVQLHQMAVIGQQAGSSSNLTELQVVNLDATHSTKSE

[3] = target: megakaryoblastic leukemia 1 (MKL1), fused to the S10 or S11 GFP fragment (UniProt Q8K4J6)
[4] = substrate: B cell lymphoma 6 (Bcl6), fused to the S10 or S11 GFP fragment (UniProt P41183); remark: listed apart in the source

Which binding [1] does the source give for “B cell lymphoma 6 (Bcl6), fused to the S10 or S11 GFP fragment (from UniProt P41183 1-707)” here?
The binding was “binds”.

What about the binding [2] of the same molecule?
The binding was “binds”.

B1: megakaryoblastic leukemia 1 (MKL1), fused to the S10 or S11 GFP fragment (protein, UniProt Q8K4J6 1-964)
chain: MTLLEPEMLMMAVQSVLQLKLQQRRTREELVSQGIMPPLKSPAAFHEQRRSLERARTEDYLKRKIRSRPERAELVRMHILEETSAEPSLQAKQLKLKRARLADDLNEKIAQRPGPMELVEKNILPVESSLKEAIIVGQVNYPKVADSSSFDEDSSDALSPEQPASHESQGSVPSPLESRVSDPLPSATSISPTQVLSQLPMAPDPGETLFLAEQPPLPPAPLLPPSLANGSIVPTAKPAPTLIKQSQPKSASEKSQRSKKAKELKPKVKKLKYHQYIPPDQKQDKGAPAMDSSYAKILQQQQLFLQLQILNQQQQQQQQQHYNYQAILPAPPKPSAETPGSSAPTPSRSLSTSSSPSSGTPGPSGLARQSSTALAAKPGALPANLDDMKVAELKQELKLRSLPVSGTKTELIERLRAYQDQVSPAPGAPKAPATTSVLSKAGEVVVAFPAALLSTGSALVTAGLAPAEMVVATVTSNGMVKFGSTGSTPPVSPTPSERSLLSTGDENSTPGDAFGEMVTSPLTQLTLQASPLQIVKEEGARAASCCLSPGARAELEGLDKDQMLQEKDKQIEELTRMLQQKQQLVELLRLQLEQQKRAQQPAPASSPVKRESGFSSCQLSCQPQGSAHAFGSGLVVPTTNHGDTQAPAPESPPVVVKQEAGPPEPDLAPSSQLLLGSQGTSFLKRVSPPTLVTDSTGTHLILTVTNKSADGPGLPAGSPQQPLSQPGSPAPGPPAQMDLEHPPQPPFATPTSLLKKEPPGYEETVTQQPKQQENGSSSQHMDDLFDILIQSGEISADFKEPPSLPGKEKSPPAAAAYGPPLTPQPSPLSELPQAAPPPGSPTLPGRLEDFLESSTGLPLLTSGHEGPEPLSLIDDLHSQMLSSSAILDHPPSPMDTSELHFAPEPSSGMGLDLAVGHLDSMDWLELSSGGPVLSLAPLSTAAPSLFSMDFLDGHDLQLHWDSCL
With B1 as the molecule, how does the binding [3] read?
The binding was “binds”.

And the binding [2]?
Its binding is “binds”.

What about the binding [4] of the same molecule?
Its binding is “no binding”.
